Data: the supplement of paper PMC6411743
± gives the standard deviation of the averaged measurements. This is a selection; strong and weak results do not stand in their true shares.

Chains of the proteins cited; added tags and fusions are not shown. Lines headed by an entry give the natural chain unless they say otherwise; changes in a name come on top.
UniProt Q6IBS0: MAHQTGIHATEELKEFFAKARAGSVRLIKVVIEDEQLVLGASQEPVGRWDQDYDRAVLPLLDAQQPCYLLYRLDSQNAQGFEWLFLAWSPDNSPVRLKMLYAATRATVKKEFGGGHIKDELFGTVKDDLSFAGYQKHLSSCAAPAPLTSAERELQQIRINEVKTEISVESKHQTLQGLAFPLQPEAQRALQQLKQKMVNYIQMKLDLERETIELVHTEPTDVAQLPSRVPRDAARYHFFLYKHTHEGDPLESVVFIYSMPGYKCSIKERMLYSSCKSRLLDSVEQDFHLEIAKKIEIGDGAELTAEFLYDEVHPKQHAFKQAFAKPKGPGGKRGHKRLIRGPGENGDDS
UniProt Q5VVJ2: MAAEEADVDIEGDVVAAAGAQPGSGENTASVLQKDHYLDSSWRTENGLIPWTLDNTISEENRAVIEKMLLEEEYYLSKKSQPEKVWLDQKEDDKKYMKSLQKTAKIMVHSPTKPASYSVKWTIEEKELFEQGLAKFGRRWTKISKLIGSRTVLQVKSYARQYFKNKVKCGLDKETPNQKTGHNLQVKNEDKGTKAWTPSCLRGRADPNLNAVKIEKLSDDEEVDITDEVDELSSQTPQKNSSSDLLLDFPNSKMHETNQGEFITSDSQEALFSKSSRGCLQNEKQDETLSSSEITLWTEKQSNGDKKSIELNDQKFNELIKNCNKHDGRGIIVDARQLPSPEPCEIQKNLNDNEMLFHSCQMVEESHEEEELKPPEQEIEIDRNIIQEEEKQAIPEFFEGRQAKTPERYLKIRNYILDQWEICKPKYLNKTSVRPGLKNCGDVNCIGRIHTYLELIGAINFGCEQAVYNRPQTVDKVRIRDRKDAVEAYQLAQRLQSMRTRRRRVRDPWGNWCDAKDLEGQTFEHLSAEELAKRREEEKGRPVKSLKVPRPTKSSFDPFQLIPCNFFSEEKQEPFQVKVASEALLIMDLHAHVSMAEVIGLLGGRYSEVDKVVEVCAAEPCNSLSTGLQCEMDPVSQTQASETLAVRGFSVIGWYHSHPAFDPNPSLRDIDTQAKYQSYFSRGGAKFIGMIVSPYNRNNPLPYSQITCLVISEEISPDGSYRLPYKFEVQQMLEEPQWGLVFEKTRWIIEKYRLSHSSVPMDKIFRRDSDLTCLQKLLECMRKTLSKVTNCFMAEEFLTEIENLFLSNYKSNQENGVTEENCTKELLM
UniProt Q7L523, whole entry: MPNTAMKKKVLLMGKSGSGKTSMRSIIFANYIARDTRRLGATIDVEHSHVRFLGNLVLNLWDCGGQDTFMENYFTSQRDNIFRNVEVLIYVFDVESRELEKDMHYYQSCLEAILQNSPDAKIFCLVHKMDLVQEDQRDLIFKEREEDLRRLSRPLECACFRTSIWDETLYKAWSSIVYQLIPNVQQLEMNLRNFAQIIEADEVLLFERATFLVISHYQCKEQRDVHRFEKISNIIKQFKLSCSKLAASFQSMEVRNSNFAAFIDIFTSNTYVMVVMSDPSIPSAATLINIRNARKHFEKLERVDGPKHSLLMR
UniProt Q5VUM1: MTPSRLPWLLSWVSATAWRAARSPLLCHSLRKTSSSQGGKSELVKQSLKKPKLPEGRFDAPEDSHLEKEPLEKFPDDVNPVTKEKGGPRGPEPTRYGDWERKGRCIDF
UniProt O14880: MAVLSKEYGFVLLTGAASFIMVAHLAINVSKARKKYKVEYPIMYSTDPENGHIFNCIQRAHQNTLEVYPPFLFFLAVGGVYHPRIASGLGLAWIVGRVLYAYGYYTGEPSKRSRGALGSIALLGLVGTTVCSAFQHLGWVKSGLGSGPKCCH
UniProt Q6N063: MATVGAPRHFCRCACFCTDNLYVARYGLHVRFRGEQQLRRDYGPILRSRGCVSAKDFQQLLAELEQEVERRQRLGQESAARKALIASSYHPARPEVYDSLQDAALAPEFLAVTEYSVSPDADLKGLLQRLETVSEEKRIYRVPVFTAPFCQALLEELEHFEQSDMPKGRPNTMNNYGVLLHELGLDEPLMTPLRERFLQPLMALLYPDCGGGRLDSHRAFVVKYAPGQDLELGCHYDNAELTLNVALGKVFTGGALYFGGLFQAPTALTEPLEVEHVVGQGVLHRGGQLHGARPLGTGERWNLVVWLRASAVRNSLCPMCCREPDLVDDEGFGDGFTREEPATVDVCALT
UniProt Q6NSJ2: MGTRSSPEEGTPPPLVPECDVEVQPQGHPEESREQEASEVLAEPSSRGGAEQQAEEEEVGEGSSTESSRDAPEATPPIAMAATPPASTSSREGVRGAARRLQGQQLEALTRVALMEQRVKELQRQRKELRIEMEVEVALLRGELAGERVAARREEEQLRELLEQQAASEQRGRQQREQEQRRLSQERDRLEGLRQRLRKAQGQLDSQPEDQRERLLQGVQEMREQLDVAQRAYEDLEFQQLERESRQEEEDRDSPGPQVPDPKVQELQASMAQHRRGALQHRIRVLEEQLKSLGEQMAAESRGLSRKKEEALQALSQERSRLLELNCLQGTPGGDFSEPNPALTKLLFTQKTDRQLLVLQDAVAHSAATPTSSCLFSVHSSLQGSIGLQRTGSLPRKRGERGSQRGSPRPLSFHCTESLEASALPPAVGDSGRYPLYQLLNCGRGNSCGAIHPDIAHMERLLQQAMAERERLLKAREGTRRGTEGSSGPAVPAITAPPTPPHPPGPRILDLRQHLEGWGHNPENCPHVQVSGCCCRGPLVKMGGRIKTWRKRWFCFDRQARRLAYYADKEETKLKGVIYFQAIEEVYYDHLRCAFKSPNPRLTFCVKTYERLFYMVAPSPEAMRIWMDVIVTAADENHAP
UniProt Q6PJW8: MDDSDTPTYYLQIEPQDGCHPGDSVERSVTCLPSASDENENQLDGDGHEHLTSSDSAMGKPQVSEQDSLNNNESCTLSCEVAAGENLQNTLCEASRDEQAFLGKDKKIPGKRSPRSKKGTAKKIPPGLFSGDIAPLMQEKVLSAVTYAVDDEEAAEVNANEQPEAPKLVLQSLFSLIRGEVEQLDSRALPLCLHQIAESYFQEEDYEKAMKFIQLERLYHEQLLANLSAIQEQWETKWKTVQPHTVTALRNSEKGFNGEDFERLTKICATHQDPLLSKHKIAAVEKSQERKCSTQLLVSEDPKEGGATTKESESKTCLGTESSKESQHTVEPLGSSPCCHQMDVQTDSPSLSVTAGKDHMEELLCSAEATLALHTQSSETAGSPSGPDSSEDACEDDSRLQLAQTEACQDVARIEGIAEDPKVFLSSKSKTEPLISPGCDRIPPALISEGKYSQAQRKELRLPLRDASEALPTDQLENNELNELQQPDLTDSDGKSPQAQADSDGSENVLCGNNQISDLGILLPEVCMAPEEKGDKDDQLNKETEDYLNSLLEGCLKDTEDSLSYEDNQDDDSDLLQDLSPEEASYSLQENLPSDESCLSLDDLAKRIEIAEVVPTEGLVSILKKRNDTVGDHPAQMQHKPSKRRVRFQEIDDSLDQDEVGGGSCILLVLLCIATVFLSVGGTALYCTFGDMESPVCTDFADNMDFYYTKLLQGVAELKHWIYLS
UniProt Q7L4P6: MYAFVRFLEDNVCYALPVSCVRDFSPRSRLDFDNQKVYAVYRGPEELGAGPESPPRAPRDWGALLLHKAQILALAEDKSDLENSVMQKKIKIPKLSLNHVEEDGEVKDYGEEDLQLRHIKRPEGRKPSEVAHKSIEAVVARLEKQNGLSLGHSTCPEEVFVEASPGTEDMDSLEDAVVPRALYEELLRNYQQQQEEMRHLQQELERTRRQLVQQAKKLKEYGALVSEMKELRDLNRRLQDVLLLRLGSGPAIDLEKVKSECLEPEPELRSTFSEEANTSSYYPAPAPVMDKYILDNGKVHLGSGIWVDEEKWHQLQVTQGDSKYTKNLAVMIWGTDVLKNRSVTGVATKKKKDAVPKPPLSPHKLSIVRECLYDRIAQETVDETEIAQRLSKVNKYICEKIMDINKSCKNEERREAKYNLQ
UniProt Q6P3S6: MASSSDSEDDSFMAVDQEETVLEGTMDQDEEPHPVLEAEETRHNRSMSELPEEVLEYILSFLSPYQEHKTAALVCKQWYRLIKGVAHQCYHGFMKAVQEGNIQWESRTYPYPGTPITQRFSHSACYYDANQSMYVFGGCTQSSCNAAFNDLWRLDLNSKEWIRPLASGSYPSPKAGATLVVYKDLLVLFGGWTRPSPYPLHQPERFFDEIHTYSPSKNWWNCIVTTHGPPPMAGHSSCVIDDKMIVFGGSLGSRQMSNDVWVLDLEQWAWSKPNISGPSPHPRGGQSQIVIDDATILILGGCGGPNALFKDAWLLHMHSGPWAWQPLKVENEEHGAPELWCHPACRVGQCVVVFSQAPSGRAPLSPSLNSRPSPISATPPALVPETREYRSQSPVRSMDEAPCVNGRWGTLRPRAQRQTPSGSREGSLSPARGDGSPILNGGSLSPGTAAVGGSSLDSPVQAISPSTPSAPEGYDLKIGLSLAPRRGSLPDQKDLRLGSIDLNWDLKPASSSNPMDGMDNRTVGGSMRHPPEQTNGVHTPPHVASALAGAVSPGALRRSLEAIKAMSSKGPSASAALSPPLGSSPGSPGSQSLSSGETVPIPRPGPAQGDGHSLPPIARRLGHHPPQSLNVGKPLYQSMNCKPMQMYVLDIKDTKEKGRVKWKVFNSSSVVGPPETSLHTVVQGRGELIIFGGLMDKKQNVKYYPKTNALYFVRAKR
UniProt Q6P6C2: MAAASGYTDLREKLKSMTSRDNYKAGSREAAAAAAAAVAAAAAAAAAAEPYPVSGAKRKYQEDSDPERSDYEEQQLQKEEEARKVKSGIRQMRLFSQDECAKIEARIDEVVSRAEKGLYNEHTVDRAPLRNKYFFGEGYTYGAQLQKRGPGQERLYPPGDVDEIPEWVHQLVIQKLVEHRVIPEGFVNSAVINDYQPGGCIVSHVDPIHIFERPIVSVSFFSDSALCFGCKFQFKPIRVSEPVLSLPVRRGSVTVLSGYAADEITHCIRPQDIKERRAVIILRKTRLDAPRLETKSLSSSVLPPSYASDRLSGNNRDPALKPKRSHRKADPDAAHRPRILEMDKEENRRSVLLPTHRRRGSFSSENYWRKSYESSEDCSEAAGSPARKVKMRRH
UniProt Q7Z460: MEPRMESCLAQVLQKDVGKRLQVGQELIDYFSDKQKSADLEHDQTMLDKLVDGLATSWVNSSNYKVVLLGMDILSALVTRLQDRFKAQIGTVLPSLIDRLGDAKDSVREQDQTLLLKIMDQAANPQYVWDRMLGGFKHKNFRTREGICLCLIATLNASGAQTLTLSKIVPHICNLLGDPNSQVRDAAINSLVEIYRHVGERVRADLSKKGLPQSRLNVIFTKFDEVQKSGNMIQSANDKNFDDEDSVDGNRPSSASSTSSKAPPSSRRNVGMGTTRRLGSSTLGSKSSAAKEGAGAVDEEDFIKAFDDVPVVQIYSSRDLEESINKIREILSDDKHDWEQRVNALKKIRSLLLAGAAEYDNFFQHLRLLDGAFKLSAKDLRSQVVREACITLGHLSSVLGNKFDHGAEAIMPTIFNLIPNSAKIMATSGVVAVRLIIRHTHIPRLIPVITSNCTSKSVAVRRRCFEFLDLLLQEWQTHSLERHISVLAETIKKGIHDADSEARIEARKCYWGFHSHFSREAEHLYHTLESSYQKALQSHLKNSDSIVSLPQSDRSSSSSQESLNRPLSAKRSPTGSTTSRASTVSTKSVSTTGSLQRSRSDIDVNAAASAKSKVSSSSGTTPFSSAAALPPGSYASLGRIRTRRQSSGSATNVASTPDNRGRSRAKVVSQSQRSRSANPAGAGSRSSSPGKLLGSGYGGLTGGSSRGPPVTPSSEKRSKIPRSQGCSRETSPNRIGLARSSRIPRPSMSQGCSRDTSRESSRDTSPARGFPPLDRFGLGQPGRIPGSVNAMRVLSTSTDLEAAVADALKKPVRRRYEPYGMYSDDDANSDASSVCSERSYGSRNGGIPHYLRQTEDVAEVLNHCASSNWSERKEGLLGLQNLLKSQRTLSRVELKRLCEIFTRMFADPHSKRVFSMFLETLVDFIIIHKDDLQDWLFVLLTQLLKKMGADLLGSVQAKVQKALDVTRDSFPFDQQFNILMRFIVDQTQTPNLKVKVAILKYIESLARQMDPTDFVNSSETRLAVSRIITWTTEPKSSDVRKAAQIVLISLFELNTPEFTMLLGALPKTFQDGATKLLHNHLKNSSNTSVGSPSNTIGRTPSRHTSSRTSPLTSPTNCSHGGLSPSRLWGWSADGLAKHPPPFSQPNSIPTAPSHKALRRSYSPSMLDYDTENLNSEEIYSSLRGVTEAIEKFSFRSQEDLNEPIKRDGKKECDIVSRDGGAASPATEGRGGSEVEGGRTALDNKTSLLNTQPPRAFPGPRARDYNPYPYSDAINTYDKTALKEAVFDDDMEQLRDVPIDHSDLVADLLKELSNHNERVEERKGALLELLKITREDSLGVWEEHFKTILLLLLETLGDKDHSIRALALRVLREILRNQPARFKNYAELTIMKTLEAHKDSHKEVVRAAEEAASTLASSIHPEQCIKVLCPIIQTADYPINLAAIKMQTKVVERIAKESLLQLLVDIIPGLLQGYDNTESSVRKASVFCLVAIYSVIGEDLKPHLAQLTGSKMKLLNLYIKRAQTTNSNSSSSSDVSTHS

Compound: Nc1ncnc2c1ncn2[C@@H]1O[C@H](COP(=O)(O)OP(=O)(O)NP(=O)(O)O)[C@@H](O)[C@H]1O [adenylyl imidodiphosphate]
Experiment: NP40-soluble protein abundance relative to vehicle (solubility fold change) (ratio); higher = more soluble protein in presence of AMP-PNP
Method in brief: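 Crude Jurkat lysate, prepared by Dounce homogenisation, was exposed to eight concentrations from 0.1 to 10 mM for 10 min at room temperature and then 3 min at 37 °C. Solubilisation used 0.8% NP40 with benzonase for 60 min at 4 °C, followed by ultracentrifugation and TMT labelling of the supernatant for LC-MS/MS. After vsn normalisation of intensities, each value is the fold change against the detergent-processed vehicle within each replicate, across three independent experiments.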

Target	NP40-soluble protein abundance (concentration: 1mM)	NP40-soluble protein abundance (concentration: 2mM)	NP40-soluble protein abundance (concentration: 4mM)	NP40-soluble protein abundance (concentration: 6mM)	NP40-soluble protein abundance (concentration: 8mM)	NP40-soluble protein abundance (concentration: 10mM)
WDR73 (UniProt Q6P4I2)	0.99 ± 0.022	0.946 ± 0.014	0.979 ± 0.013	0.944 ± 0.018	0.959 ± 0.06	0.927 ± 0.019
Q5VVD7 and related entries (UniProt Q8IWE5)	1.01 ± 0.033	0.992 ± 0.04	1.01 ± 0.051	0.999 ± 0.014	0.971 ± 0.05	0.972 ± 0.072
CEP135 (UniProt Q66GS9)	0.964 ± 0.047	0.967 ± 0.048	0.985 ± 0.016	0.929 ± 0.048	0.922 ± 0.035	0.894 ± 0.032
TMED8 (UniProt Q6PL24)	1.05 ± 0.049	1.06 ± 0.097	1.06 ± 0.055	1.03 ± 0.044	1.06 ± 0.081	1.04 ± 0.049
UniProt Q6N069	0.868 ± 0.046	0.811 ± 0.063	0.94 ± 0.042	0.966 ± 0.067	1.02 ± 0.066	0.902 ± 0.06
UniProt Q7Z3B4 and related entries	0.969 ± 0.054	0.9436 ± 0.0042	1 ± 0.064	1.07 ± 0.067	1.13 ± 0.078	1.09 ± 0.11
TWF2 (UniProt Q6IBS0)	1 ± 0.051	1.03 ± 0.034	0.976 ± 0.028	0.932 ± 0.014	0.931 ± 0.01	0.952 ± 0.053
MYSM1 (UniProt Q5VVJ2)	0.978 ± 0.045	0.963 ± 0.037	0.968 ± 0.038	0.957 ± 0.04	0.951 ± 0.018	0.94 ± 0.072
ABHD13 (UniProt Q7L211)	1.01 ± 0.037	0.9867 ± 0.0085	1.003 ± 0.0017	0.994 ± 0.023	0.991 ± 0.035	1.03 ± 0.018
DCAF15 (UniProt Q66K64)	1.05 ± 0.02	1.07 ± 0.023	1.04 ± 0.021	1.02 ± 0.041	1.02 ± 0.044	1.04 ± 0.021
EEPD1 (UniProt Q7L9B9)	0.992 ± 0.037	1 ± 0.012	0.9996 ± 0.0057	0.995 ± 0.035	0.9903 ± 0.0092	0.973 ± 0.023
TAF3 (UniProt Q5VWG9)	1.02 ± 0.055	1.05 ± 0.056	1.05 ± 0.05	1.07 ± 0.045	1.06 ± 0.021	1.08 ± 0.035
UniProt Q6GQQ9 and related entries	1 ± 0.013	1.04 ± 0.053	1.03 ± 0.031	1 ± 0.018	1 ± 0.018	1 ± 0.032
TAOK1 (UniProt Q7L7X3)	1.03 ± 0.041	1.011 ± 0.009	1.03 ± 0.012	1.01 ± 0.018	1.02 ± 0.031	1.03 ± 0.027
UniProt Q6RFH5 and related entries	1.01 ± 0.014	0.99 ± 0.015	0.997 ± 0.019	1.01 ± 0.012	1.02 ± 0.013	1.008 ± 0.0061
UniProt Q6ICG6 and related entries	0.96 ± 0.044	0.962 ± 0.017	0.968 ± 0.048	0.994 ± 0.06	0.982 ± 0.032	1.01 ± 0.044
CWF19L1 (UniProt Q69YN2)	0.9932 ± 0.0026	0.959 ± 0.054	1.004 ± 0.0053	1.02 ± 0.022	1.02 ± 0.028	1.01 ± 0.017
INTS5 (UniProt Q6P9B9)	0.989 ± 0.021	0.971 ± 0.024	1.05 ± 0.078	1.1 ± 0.032	1.13 ± 0.044	1.11 ± 0.064
UniProt Q6ZT12 and related entries	1.06 ± 0.024	1.027 ± 0.0036	1.02 ± 0.031	0.9715 ± 0.0059	0.96 ± 0.02	0.9736 ± 0.005
UniProt Q712K3	1.04 ± 0.051	1.09 ± 0.045	0.99 ± 0.052	0.992 ± 0.036	0.968 ± 0.04	1 ± 0.087

Target	NP40-soluble protein abundance (concentration: 1mM)	NP40-soluble protein abundance (concentration: 2mM)	NP40-soluble protein abundance (concentration: 4mM)	NP40-soluble protein abundance (concentration: 6mM)	NP40-soluble protein abundance (concentration: 8mM)	NP40-soluble protein abundance (concentration: 10mM)
SNX30 (UniProt Q5VWJ9)	1.002 ± 0.0069	0.9917 ± 6.2e-05	0.994 ± 0.03	1.01 ± 0.017	0.987 ± 0.025	1.013 ± 0.0092
UniProt Q7L523	1.05 ± 0.037	0.989 ± 0.033	1.06 ± 0.05	1.01 ± 0.04	1.09 ± 0.051	1.007 ± 0.00089
FAM160B1 (UniProt Q5W0V3)	1.06 ± 0.078	0.992 ± 0.087	1.02 ± 0.073	0.9309 ± 0.004	0.957 ± 0.038	0.939 ± 0.082
UniProt Q5VVQ6 and related entries	0.976 ± 0.028	0.947 ± 0.032	1.02 ± 0.013	0.977 ± 0.013	0.993 ± 0.016	0.967 ± 0.032
NAIF1 (UniProt Q69YI7)	1.01 ± 0.012	1.04 ± 0.071	0.982 ± 0.033	0.951 ± 0.02	0.931 ± 0.021	0.946 ± 0.056
RETSAT (UniProt Q6NUM9)	0.993 ± 0.031	0.973 ± 0.028	1 ± 0.018	1 ± 0.014	1.05 ± 0.04	0.998 ± 0.028
UniProt Q7Z333 and related entries	0.982 ± 0.026	0.944 ± 0.018	1 ± 0.076	0.9718 ± 0.0015	0.958 ± 0.014	0.948 ± 0.017
SND1 (UniProt Q7KZF4)	1.03 ± 0.029	1.03 ± 0.034	1.11 ± 0.049	1.21 ± 0.049	1.27 ± 0.064	1.28 ± 0.059
CENPQ (UniProt Q7L2Z9)	0.986 ± 0.041	0.966 ± 0.057	0.968 ± 0.044	0.941 ± 0.045	0.905 ± 0.041	0.939 ± 0.026
HSDL2 (UniProt Q6YN16)	0.998 ± 0.019	1.02 ± 0.029	1.016 ± 0.0087	1.019 ± 0.0086	1 ± 0.035	1.05 ± 0.013
UniProt Q7Z2W9 and related entries	1.01 ± 0.055	0.976 ± 0.01	0.982 ± 0.0065	0.9659 ± 0.0065	0.964 ± 0.045	0.957 ± 0.011
UniProt Q641Q2 and related entries	1.06 ± 0.034	1.1 ± 0.08	1.03 ± 0.014	1.03 ± 0.049	0.988 ± 0.053	1.04 ± 0.05
SDHAF4 (UniProt Q5VUM1)	0.9921 ± 0.0038	1.03 ± 0.035	0.9496 ± 0.0036	0.917 ± 0.017	0.907 ± 0.018	0.93 ± 0.03
UniProt Q6IA86 and related entries	0.947 ± 0.047	0.879 ± 0.1	0.963 ± 0.043	0.942 ± 0.035	0.996 ± 0.042	0.931 ± 0.051
Q5VV87 and related entries (UniProt O14880)	0.956 ± 0.065	0.937 ± 0.051	0.957 ± 0.058	1.01 ± 0.056	1.02 ± 0.014	1.042 ± 0.01
OGFOD2 (UniProt Q6N063)	0.975 ± 0.076	0.999 ± 0.023	0.949 ± 0.026	0.959 ± 0.014	0.923 ± 0.028	0.929 ± 0.032
PHLDB3 (UniProt Q6NSJ2)	1.03 ± 0.03	1.03 ± 0.035	1.03 ± 0.03	1.01 ± 0.031	0.988 ± 0.014	0.995 ± 0.013
TTC27 (UniProt Q6P3X3)	1.01 ± 0.035	1 ± 0.029	1.03 ± 0.032	0.98 ± 0.045	0.975 ± 0.032	0.97 ± 0.04
UniProt Q6GPH4 and related entries	1.01 ± 0.04	1.06 ± 0.039	1.01 ± 0.029	1 ± 0.028	1 ± 0.039	0.989 ± 0.011
UniProt Q7Z5L9 and related entries	1.01 ± 0.022	1.04 ± 0.035	1.01 ± 0.028	0.982 ± 0.033	0.978 ± 0.056	0.961 ± 0.047

Target	NP40-soluble protein abundance (concentration: 1mM)	NP40-soluble protein abundance (concentration: 2mM)	NP40-soluble protein abundance (concentration: 4mM)	NP40-soluble protein abundance (concentration: 6mM)	NP40-soluble protein abundance (concentration: 8mM)	NP40-soluble protein abundance (concentration: 10mM)
UniProt Q6PJW8	0.994 ± 0.014	1.02 ± 0.047	1 ± 0.023	0.977 ± 0.019	0.976 ± 0.015	0.983 ± 0.064
UniProt Q6ZMG9 and related entries	0.986 ± 0.04	0.978 ± 0.058	1.02 ± 0.032	1.03 ± 0.11	1.03 ± 0.098	1.06 ± 0.07
UniProt Q6PII3 and related entries	0.986 ± 0.024	1.04 ± 0.042	1.02 ± 0.016	1.01 ± 0.02	0.991 ± 0.032	1.04 ± 0.042
SLC27A4 (UniProt Q6P1M0)	1.03 ± 0.022	1 ± 0.037	1.04 ± 0.038	1.01 ± 0.037	1.01 ± 0.028	1.03 ± 0.052
UniProt Q7L4P6 and related entries	1.21 ± 0.13	1.37 ± 0.095	1.2 ± 0.15	1.14 ± 0.16	1.03 ± 0.043	1.23 ± 0.19
UniProt Q6PII5-2|B4DED4	0.977 ± 0.019	0.982 ± 0.01	0.951 ± 0.018	1 ± 0.048	1.01 ± 0.043	0.989 ± 0.016
CEP350 (UniProt Q5VT06)	0.978 ± 0.06	0.989 ± 0.046	1 ± 0.07	0.975 ± 0.024	0.951 ± 0.031	0.967 ± 0.034
UniProt Q7L5Y1 and related entries	0.992 ± 0.03	1 ± 0.016	1.007 ± 0.0081	0.99 ± 0.04	1.01 ± 0.013	0.996 ± 0.0075
UniProt Q6XQN6 and related entries	0.994 ± 0.02	1.01 ± 0.012	1.01 ± 0.018	0.966 ± 0.033	0.954 ± 0.045	0.969 ± 0.021
DHRS11 (UniProt Q6UWP2)	1.03 ± 0.026	1.01 ± 0.031	1.042 ± 0.0067	1.05 ± 0.014	1.05 ± 0.026	1.05 ± 0.041
UniProt Q6P3S6 and related entries	1.02 ± 0.018	1.1 ± 0.091	1.04 ± 0.036	1.02 ± 0.018	1.0352 ± 0.00026	1.08 ± 0.034
GRAMD4 (UniProt Q6IC98)	1 ± 0.03	1.01 ± 0.032	1.01 ± 0.016	1.03 ± 0.051	1.02 ± 0.013	1.02 ± 0.034
UniProt Q6IE81 and related entries	1.025 ± 0.0047	1.037 ± 0.0033	1.02 ± 0.022	1.05 ± 0.039	1.024 ± 0.002	1.056 ± 0.0095
UniProt Q7Z4G1 and related entries	0.994 ± 0.024	1.04 ± 0.056	1.01 ± 0.039	1.03 ± 0.018	1 ± 0.034	1.01 ± 0.035
UniProt Q6ZRI6 and related entries	0.9914 ± 0.0011	1.01 ± 0.044	1.01 ± 0.018	0.992 ± 0.029	1 ± 0.018	0.99766 ± 5.3e-05
UniProt Q6UB98 and related entries	0.991 ± 0.053	0.986 ± 0.03	1.15 ± 0.17	1.06 ± 0.039	1.08 ± 0.12	1.03 ± 0.026
UniProt Q6P6C2 and related entries	1.15 ± 0.065	1.17 ± 0.036	1.22 ± 0.07	1.24 ± 0.13	1.3 ± 0.13	1.33 ± 0.11
UniProt Q6PI26 and related entries	1.01 ± 0.015	1.01 ± 0.048	0.9948 ± 0.001	1.007 ± 0.0059	0.996 ± 0.014	1.01 ± 0.034
LYPLAL1 (UniProt Q5VWZ2)	0.967 ± 0.026	0.932 ± 0.062	1.02 ± 0.023	0.973 ± 0.03	1.03 ± 0.028	1 ± 0.025
UniProt Q7Z460 and related entries	1.02 ± 0.013	1.07 ± 0.036	1.05 ± 0.025	1.02 ± 0.026	1.01 ± 0.018	1.06 ± 0.03

3 entries from above, as comma-separated lines:
Target,NP40-soluble protein abundance (concentration: 1mM),NP40-soluble protein abundance (concentration: 2mM),NP40-soluble protein abundance (concentration: 4mM),NP40-soluble protein abundance (concentration: 6mM),NP40-soluble protein abundance (concentration: 8mM),NP40-soluble protein abundance (concentration: 10mM)
UniProt Q7Z4G1 and related entries,0.994 ± 0.024,1.04 ± 0.056,1.01 ± 0.039,1.03 ± 0.018,1 ± 0.034,1.01 ± 0.035
UniProt Q6ZRI6 and related entries,0.9914 ± 0.0011,1.01 ± 0.044,1.01 ± 0.018,0.992 ± 0.029,1 ± 0.018,0.99766 ± 5.3e-05
UniProt Q6UB98 and related entries,0.991 ± 0.053,0.986 ± 0.03,1.15 ± 0.17,1.06 ± 0.039,1.08 ± 0.12,1.03 ± 0.026
